Single values of this data set are uncertain.
B1: human tRNA-Pro; a variant is named by its letters at N, in order (parent)
chain: GGCTCGTTGGTCTAGNGGTATGATTCTCGCTTAGGGTGCGAGAGGTCCCGGGTTCNNATCCCGGACGAGCCC

What was measured:
[1] = variants of: B1; test: tRNA Pol-III promoter activity, log2 (circRNA frequency / plasmid DNA frequency) (log2 ratio); higher = stronger promoter activity; details: HEK293T; construct: no Pol-II promoter ((-)CMV library)
[2] = variants of: B1; test: tRNA 3' processing efficiency (processed reads / all reads, maximum-likelihood estimate) (fraction); higher = more efficient 3' processing; details: HEK293T; construct: no Pol-II promoter ((-)CMV library)
[3] = variants of: B1; test: tRNA 5' processing efficiency (processed reads / all reads, maximum-likelihood estimate) (fraction); higher = more efficient 5' processing; details: HEK293T; construct: CMV Pol-II promoter ((+)CMV library, decapped)

## GGCTCGTTGGTCTAGGGTTGTGATTCTCGCTTAGGGTGCGAGAGGTCCCGGGTTCAAATCCCGGACGAGCCC
[1]
  tRNA Pol-III promoter activity (log2): -0.878
[2]
  tRNA 3' processing efficiency: 0.25

## GGCTCGTAGGTCTAGAGGTATGATTCTCGCTTAGGGTGCGAGAGGTCCCGGGTTCAAATCCCGGACGAGCCC
[1]
  tRNA Pol-III promoter activity (log2): 0.242
[2]
  tRNA 3' processing efficiency: 0.17

## GGCTCGTTGGTCTAGGGATATGATTCTCGCTTAGGGTGCGAGAGGTCCCGGGTTCAAAACCCGGACGAGCCC
[1]
  tRNA Pol-III promoter activity (log2): 0.447
[2]
  tRNA 3' processing efficiency: 0.5

## GGCTCGTTGGTCTAGGGATATGATTCTCGCTTAGGGTGCGAGAGGTCCCGGGTTCAAACCCCGGACGAGCCC
[1]
  tRNA Pol-III promoter activity (log2): 0.532
[2]
  tRNA 3' processing efficiency: 0.33

## GGCTCGTAGGTCTAGCGGTATGATTCTCGCTTAGGGTGCGAGAGGTCCCGGGTTCAAATCCCGGACGAGCCC
[1]
  tRNA Pol-III promoter activity (log2): 0.0214
[2]
  tRNA 3' processing efficiency: 0.4
[3]
  tRNA 5' processing efficiency: 0.33

## GGCTCGTTGGTCTAGAGCTATGATTCTCGCTTAGGGTGCGAGAGGTCCCGGGTACAAATCCCGGACGAGCCC
[1]
  tRNA Pol-III promoter activity (log2): 2.44
[2]
  tRNA 3' processing efficiency: 0.5

## GGCTCGTTGGTCTAGGGTTCTGATTCTCGCTTAGGGTGCGAGAGGTCCCGGGTTTAAATCCCGGACGAGCCC
[1]
  tRNA Pol-III promoter activity (log2): 5.75
[2]
  tRNA 3' processing efficiency: 0.86

## GGCTCGTAGGTCTAGGGGTATGATTCTCGCTTAGGGTGCGAGAGGTCCCGGGTTCAAATCCCGGACGAGCCC
[1]
  tRNA Pol-III promoter activity (log2): -0.681
[2]
  tRNA 3' processing efficiency: 0.95
[3]
  tRNA 5' processing efficiency: 0.33

## GGCTCGTTGGTCTAGGGTTATGATTCTCGCTTAGGGTGCGAGAGGTCCCGGGATCAAAACCCGGACGAGCCC
[1]
  tRNA Pol-III promoter activity (log2): 4.12
[2]
  tRNA 3' processing efficiency: 0.62

## GGCTCGTTGGTCTAGGGTTATGATTCTCGCTTAGGGTGCGAGAGGTCCCGGGATCAAATCCCGGACGAGCCC
[1]
  tRNA Pol-III promoter activity (log2): 1.01
[2]
  tRNA 3' processing efficiency: 0.11

## GGCTCGTTGGTCTAGTGCTATGATTCTCGCTTAGGGTGCGAGAGGTCCCGGGTTCAACTCCCGGACGAGCCC
[1]
  tRNA Pol-III promoter activity (log2): 4.36
[2]
  tRNA 3' processing efficiency: 0.4

## GGCTCGTTGGTCTAGTGCTATGATTCTCGCTTAGGGTGCGAGAGGTCCCGGGTTCAATTCCCGGACGAGCCC
[1]
  tRNA Pol-III promoter activity (log2): 3.25
[2]
  tRNA 3' processing efficiency: 0.2

## GGCTCGTTGGTCTAGTGTTTTGATTCTCGCTTAGGGTGCGAGAGGTCCCGGGTTCAAATCCCGGACGAGCCC
[1]
  tRNA Pol-III promoter activity (log2): 3.16
[2]
  tRNA 3' processing efficiency: 0.43

## GGCTCGTAGGTCTCCGGGTATGATTCTCGCTTAGGGTGCGAGAGGTCCCGGGTTCAAATCCCGGACGAGCCC
[1]
  tRNA Pol-III promoter activity (log2): 7.25
[2]
  tRNA 3' processing efficiency: 0.3

## GGCTCGTTGGTCTAGGGGTATGATTCTCGCTTAAGGTGCGAGAGGTCCCGGGTTCAAATCCCGGACGAGCCC
[1]
  tRNA Pol-III promoter activity (log2): 2.73
[2]
  tRNA 3' processing efficiency: 0.25

## GGCTCGTTGGTCTAGGGTTATGATTCTCGCTTAGGGTGCGAGAGGTCCCGGGTTCAAAACCCGGACGAGCCC
[1]
  tRNA Pol-III promoter activity (log2): 0.454
[2]
  tRNA 3' processing efficiency: 0.67

## GGCTCGTTGGTCTAGGGTTATGATTCTCGCTTAGGGTGCGAGAGGTCCCGGGTTCAAAGCCCGGACGAGCCC
[1]
  tRNA Pol-III promoter activity (log2): 0.942
[2]
  tRNA 3' processing efficiency: 0.33

## GGCTCGTTGGTCTAGGGTTATGATTCTCGCTTAGGGTGCGAGAGGTCCCGGGTTCAAACCCCGGACGAGCCC
[1]
  tRNA Pol-III promoter activity (log2): 1.1
[2]
  tRNA 3' processing efficiency: 0.62

## GGCTCGTTGGTCTAGGGTTATGATTCTCGCTTAGGGTGCGAGAGGTCCCGGGTTCAACTCCCGGACGAGCCC
[1]
  tRNA Pol-III promoter activity (log2): -0.145
[2]
  tRNA 3' processing efficiency: 0.43
[3]
  tRNA 5' processing efficiency: 0.18

## GGCTCGTTGGTCTAGGGTTATGATTCTCGCTTAGGGTGCGAGAGGTCCCGGGTTCAAGGCCCGGACGAGCCC
[1]
  tRNA Pol-III promoter activity (log2): 3.36
[2]
  tRNA 3' processing efficiency: 0.25

## GGCTCGTTGGTCTAGGGTTATGATTCTCGCTTAGGGTGCGAGAGGTCCCGGGTTCAAGACCCGGACGAGCCC
[1]
  tRNA Pol-III promoter activity (log2): 3.3
[2]
  tRNA 3' processing efficiency: 0.33

## GGCTCGTTGGTCTAGGGTGCTGATTCTCGCTTAGGGTGCGAGAGGTCCCGGGTTCAAATCCCGGACGAGCCC
[1]
  tRNA Pol-III promoter activity (log2): 3.3
[2]
  tRNA 3' processing efficiency: 0.33

## GGCTCGTTGGTCTAGGGGTATGATTCTCACTTAGGGTGCGAGAGGTCCCGGGGTCAAATCCCGGACGAGCCC
[1]
  tRNA Pol-III promoter activity (log2): 5.03
[2]
  tRNA 3' processing efficiency: 0.25

## GGCTCGTTGGTCTAGGGATATGATTCTCGCTTAGGGTGCGAGAGGTCCCGGGGTCAAATCCCGGACGAGCCC
[1]
  tRNA Pol-III promoter activity (log2): 0.0956
[2]
  tRNA 3' processing efficiency: 0.5

## GGCTCGTAGGTCTCCGGGTATGATTCTCGCTTAGGGTGCGAGAGGTCCCGGGGTCAAATCCCGGACGAGCCC
[1]
  tRNA Pol-III promoter activity (log2): 6.25
[2]
  tRNA 3' processing efficiency: 0.4

## GGCTCGTTGGTCTAGGGGTATGATTCTCGCTTAGGGTGCGAGAGGTCCCTGGTTCAAATCCCGGACGAGCCC
[1]
  tRNA Pol-III promoter activity (log2): 5.34
[2]
  tRNA 3' processing efficiency: 0.41

## GGCTCGTTGGTCTAGGGGTATGATTCTCACTTAGGGTGCGAGAGGTCCCGGGTTTAAATCCCGGACGAGCCC
[1]
  tRNA Pol-III promoter activity (log2): 3.03
[2]
  tRNA 3' processing efficiency: 0.5

## GGCTCGTTGGTCTAGGGGTATGATTCTCGCTTAGGGTGCGAGAGGTCCCAGGTTCAACTCCCGGACGAGCCC
[1]
  tRNA Pol-III promoter activity (log2): 6.51
[2]
  tRNA 3' processing efficiency: 0.5

## GGCTCGTTGGTCTAGGGGTATGATTCTCGCTTAGGGTGCGAGAGGTCCCGCGTTCAAATCCCGGACGAGCCC
[1]
  tRNA Pol-III promoter activity (log2): 6.03
[2]
  tRNA 3' processing efficiency: 0.25

## GGCTCGTTGGTCTAGGGGTATGATTCTCGCTTAGGGTGCGAGAGGTCCCGAGTTCAAATCCCGGACGAGCCC
[1]
  tRNA Pol-III promoter activity (log2): 4.36
[2]
  tRNA 3' processing efficiency: 0.44

## GGCTCGTTGGTCTAGGGGTATGATTCTCGCTTAGGGTGCGAGAGGTCCCGTGTTCAAATCCCGGACGAGCCC
[1]
  tRNA Pol-III promoter activity (log2): 3.78
[2]
  tRNA 3' processing efficiency: 0.22

## GGCTCGTTGGTCTAGGGCTATGATTCTCGCTTAGGGTGCGAGAGGTCCCGGGTTCAAATCCCGGACGAGCCC
[1]
  tRNA Pol-III promoter activity (log2): -4.14
[2]
  tRNA 3' processing efficiency: 0.5
[3]
  tRNA 5' processing efficiency: 0.26

## GGCTCGTTGGTCTAGGGTTATGATTCTCGCTTAGGGTGCGAGAGGTCCCGGGTTCAAATCCCGGACGAGCCC
[1]
  tRNA Pol-III promoter activity (log2): -3.12
[2]
  tRNA 3' processing efficiency: 0.55
[3]
  tRNA 5' processing efficiency: 0.33

## GGCTCGTTGGTCTAGCGTGATGATTCTCGCTTAGGGTGCGAGAGGTCCCGGGATCAAATCCCGGACGAGCCC
[1]
  tRNA Pol-III promoter activity (log2): 5.25
[2]
  tRNA 3' processing efficiency: 0.2

## GGCTCGTTGGTCTAGCGATATGATTCTCGCTTAGGGTGCGAGAGGTCCCGGGATCAAATCCCGGACGAGCCC
[1]
  tRNA Pol-III promoter activity (log2): 6.36
[2]
  tRNA 3' processing efficiency: 0.2

Reference: the supplement of paper PMC6445147
